Results are given in words; binding and its absence hold for the method and conditions named. Some entries that bind do so weakly or less than the wild type.
Molecular target: endogenous/native MMP-9 in human plasma (human (endogenous in plasma)) (UniProt P14780)
Assay: AlphaScreen or HTRF; AlphaLISA no-wash sandwich immunoassay on 5 uL human plasma plus 5 uL assay buffer; anti-MMP-9 acceptor beads and biotinylated anti-TIMP-1 antibody with streptavidin donor beads, room temperature; plasma of normoalbuminuric (n = 16) and albuminuric (n = 20) hypertensive …; also tested with H2O2; semi-quantitative

The chains behind the UniProt entries cited, without tags or fusion partners. Residues count along the entry.
UniProt P14780, residues 107-707: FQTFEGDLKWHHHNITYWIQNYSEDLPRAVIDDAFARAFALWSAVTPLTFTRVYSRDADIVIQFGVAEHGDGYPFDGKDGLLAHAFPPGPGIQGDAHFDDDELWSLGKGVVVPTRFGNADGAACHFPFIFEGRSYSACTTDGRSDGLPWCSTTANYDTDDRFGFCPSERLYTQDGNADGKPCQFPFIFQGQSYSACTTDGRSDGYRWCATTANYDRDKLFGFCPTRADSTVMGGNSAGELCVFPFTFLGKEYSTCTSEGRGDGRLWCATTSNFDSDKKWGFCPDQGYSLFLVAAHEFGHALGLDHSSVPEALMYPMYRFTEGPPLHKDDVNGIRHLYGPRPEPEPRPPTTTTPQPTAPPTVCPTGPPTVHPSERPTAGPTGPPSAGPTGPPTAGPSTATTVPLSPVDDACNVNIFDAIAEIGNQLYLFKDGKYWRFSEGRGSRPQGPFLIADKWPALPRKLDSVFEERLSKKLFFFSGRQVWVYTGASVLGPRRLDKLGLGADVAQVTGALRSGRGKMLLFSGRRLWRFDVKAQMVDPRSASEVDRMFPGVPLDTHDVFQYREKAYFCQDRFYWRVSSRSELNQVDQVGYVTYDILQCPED
UniProt P01033, residues 24-207: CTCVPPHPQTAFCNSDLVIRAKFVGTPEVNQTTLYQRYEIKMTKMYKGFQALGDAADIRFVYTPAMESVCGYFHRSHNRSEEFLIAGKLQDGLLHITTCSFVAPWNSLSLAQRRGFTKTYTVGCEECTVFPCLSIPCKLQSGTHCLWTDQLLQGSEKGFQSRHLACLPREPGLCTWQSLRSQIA

binding: binds
Substance: endogenous/native TIMP-1 in human plasma (from UniProt P01033 24-207)

From publication PMC5523156
